In this assay the test system is OVCAR8. In words: cell count relative to DMSO vehicle (fold change); higher = more surviving senescent cells (less killing). The settings on record: senescence inducer: cisplatin 10 µM 48 h, then 6 d recovery (CP senescent), exposure time 24 h.

Where a name gives a salt, the structure may show the parent alone. ± gives the standard deviation of the averaged measurements. This is one part of the list. This data set is noisy: repeats of one test often differ as much as different tests do.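 Cells were counted by imaging DAPI-stained nuclei, and cells lacking phalloidin-stained cytoplasm were excluded as dead. Each well's count was divided by the median count of the vehicle wells on the same plate, and values were averaged over two replicate plates.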

Take `NC(N)=NC(=O)c1nc(Cl)c(N2CCCCCC2)nc1N` [5-(N,N-Hexamethylene)-amiloride]: the cell count by setting is: (compound dose 1 µM) 0.853 ± 0.024; (compound dose 5 µM) 0.692 ± 0.2.

As for `C[C@H](CCC(=O)NCC(=O)O)[C@H]1CC[C@H]2[C@@H]3[C@H](O)C[C@@H]4C[C@H](O)CC[C@]4(C)[C@H]3CC[C@]12C` [Glycochenodeoxycholic acid], the cell count (compound dose 1 µM) was 1.13 ± 0.18 and the cell count (compound dose 5 µM) stood at 0.599 ± 0.45.

With `C[C@H](CCC(=O)NCC(=O)O)[C@H]1CC[C@H]2[C@@H]3[C@H](O)C[C@@H]4C[C@H](O)CC[C@]4(C)[C@H]3CC[C@]12C` [Glycochenodeoxycholic acid (sodium salt)], the cell count is, setting by setting: (compound dose 1 µM) 0.956 ± 0.13; (compound dose 5 µM) 0.812 ± 0.19.

On to `CC(C)(C)C(=O)N1N=CC[C@H]1c1ccccc1`, for which the cell count is, setting by setting: (compound dose 1 µM) 1.17 ± 0.09; (compound dose 5 µM) 0.71 ± 0.16.

In the case of `COc1cc(N2CCC(N)CC2)ccc1Nc1ncc(Cl)c(-c2c[nH]c3ccccc23)n1`, the cell count is, setting by setting: (compound dose 1 µM) 0.882 ± 0.096; (compound dose 5 µM) 0.45 ± 0.052.

As for `Nc1[nH]nc2nnc(-c3c(-c4ccccc4)nn4ccccc34)cc12`, the cell count (compound dose 1 µM) amounted to 1.08 ± 0.12 and the cell count (compound dose 5 µM) turned out to be 0.961 ± 0.24.

Molecule `Cc1ccc(NC(=O)c2cccc(N(C)C)c2)cc1NC(=O)c1ccc(O)cc1` registered a cell count (compound dose 1 µM) of 0.838 ± 0.061 and a cell count (compound dose 5 µM) of 0.851 ± 0.098.

Regarding `O=C1NCCc2[nH]c(-c3ccncc3)cc21`, the cell count is 1.28 ± 0.081 (compound dose 1 µM) and 0.872 ± 0.2 (compound dose 5 µM).

Turning to `CCCCOc1ccc(CC/C=C2\SC(=O)N(CCN)C2=O)cc1` [K145 (hydrochloride)], the cell count came out at 0.982 ± 0.18 (compound dose 1 µM) and 0.887 ± 0.026 (compound dose 5 µM).

In the case of `O=C(CCCCCCC(=O)Nc1ccccc1)NO`, the cell count is, setting by setting: (compound dose 1 µM) 0.716 ± 0.11; (compound dose 5 µM) 0.366 ± 0.031.

In the case of `O=C(/C=C/c1ccc(O)c(O)c1)c1ccc(O)cc1O` [Butein], the cell count was 1.09 ± 0.12 (compound dose 1 µM) and 1.18 ± 0.15 (compound dose 5 µM).

`COc1ccc(CN(C(=O)Cc2cccs2)c2cc(OC)c(OC)c(OC)c2)cc1`: the cell count reads like this: (compound dose 1 µM) 0.665 ± 0.066; (compound dose 5 µM) 0.642 ± 0.3.

With `COc1cc2/c(=N/c3ccc(Br)cc3F)nc[nH]c2cc1OCC1CCN(C)CC1` [Vandetanib], the cell count turned out to be 1.12 ± 0.11 (compound dose 1 µM) and 1.04 ± 0.02 (compound dose 5 µM).

In the case of `O=C(CCCCCN1C(=O)c2cccc3cccc(c23)C1=O)NO` [Scriptaid], the cell count was 0.73 ± 0.17 (compound dose 1 µM) and 0.489 ± 0.023 (compound dose 5 µM).

Take `CCN(CC)C(=S)SSC(=S)N(CC)CC`: the cell count by setting is: (compound dose 1 µM) 0.442 ± 0.2; (compound dose 5 µM) 0.0705 ± 0.054.

Regarding `CCCn1/c(=N/C(=O)c2cccc(C(N)=O)c2)[nH]c2ccccc21` [Takinib], the cell count runs as follows: (compound dose 1 µM) 1.06 ± 0.18; (compound dose 5 µM) 0.761 ± 0.064.

With `CCOC(=O)C1=C(C)NC(C)=C(C(=O)OCC)C1c1ccccc1/C=C/C(=O)OC(C)(C)C` [Lacidipine], the cell count is, setting by setting: (compound dose 1 µM) 1.1 ± 0.14; (compound dose 5 µM) 0.691 ± 0.19.

Regarding `Cc1nc2cccc(N)c2c(=O)n1C1CCC(=O)NC1=O` (configuration not stated) [Avadomide], the cell count turned out to be 0.866 ± 0.37 (compound dose 1 µM) and 1.22 ± 0.16 (compound dose 5 µM).

For `O=S(=O)(c1ccccc1)N(CC(F)(F)F)c1ccc(C(O)(C(F)(F)F)C(F)(F)F)cc1`, the cell count (compound dose 1 µM) was 1.06 ± 0.17 and the cell count (compound dose 5 µM) was 0.919 ± 0.13.

For `Cc1cc(N2CCOCC2)cc2[nH]c(-c3c(NC[C@@H](O)c4cccc(Cl)c4)cc[nH]c3=O)nc12`, the cell count amounted to 0.708 ± 0.12 (compound dose 1 µM) and 0.495 ± 0.061 (compound dose 5 µM).

With `CS(=O)(=O)N1CCN(Cc2cc3nc(-c4cccc5[nH]ncc45)nc(N4CCOCC4)c3s2)CC1` [Pictilisib (GDC-0941)], the cell count (compound dose 1 µM) is 0.776 ± 0.0078 and the cell count (compound dose 5 µM) amounted to 0.682 ± 0.042.

In turn, `Cc1cc(O)c(C(=O)CCC(C)C)c(=O)o1` [Pogostone] gave a cell count (compound dose 1 µM) of 1.21 ± 0.089 and a cell count (compound dose 5 µM) of 0.815 ± 0.23.

As for `CC1(C)SCCN(S(=O)(=O)c2ccc(OCC#CCO)cc2)[C@H]1C(=O)NO` [Apratastat], the cell count is, setting by setting: (compound dose 1 µM) 1.14 ± 0.061; (compound dose 5 µM) 0.883 ± 0.08.

As to `Nc1nc2c(ncn2COCCO)c(=O)[nH]1`, the cell count is 1.32 ± 0.16 (compound dose 1 µM) and 0.907 ± 0.15 (compound dose 5 µM).

Turning to `CC1(C)C2=CCCC(C)(C)[C@]23CC[C@H]1C3` [Isolongifolene], the cell count runs as follows: (compound dose 1 µM) 0.985 ± 0.029; (compound dose 5 µM) 0.93 ± 0.16.

Consider `COc1ccc(C(=O)CC(=O)c2ccc(C(C)(C)C)cc2)cc1`, for which the cell count was 1.01 ± 0.12 (compound dose 1 µM) and 0.794 ± 0.19 (compound dose 5 µM).

Turning to `COc1ccc(C(=O)c2ccccc2)c(O)c1`, the cell count runs as follows: (compound dose 1 µM) 1 ± 0.14; (compound dose 5 µM) 0.87 ± 0.36.

Turning to `CC(C)(C)c1ccc(C(=O)NC(=S)Nc2ccc(N)cc2)cc1` [Tenovin-3], the cell count runs as follows: (compound dose 1 µM) 1.05 ± 0.014; (compound dose 5 µM) 1.04 ± 0.014.

`CNC(=O)[C@@H](c1ccccc1)N1CCc2cc(OC)c(OC)cc2[C@@H]1CCc1ccc(C(F)(F)F)cc1` [Almorexant]: the cell count is, setting by setting: (compound dose 1 µM) 0.959 ± 0.05; (compound dose 5 µM) 0.57 ± 0.017.

With `CCCCCCCC/C=C1\C=C(C(F)(F)F)c2cc(O)c(O)cc21`, the cell count by setting is: (compound dose 1 µM) 0.674 ± 0.068; (compound dose 5 µM) 0.023 ± 0.016.

With `O=C(c1cc(-c2cc3c(cc2C(=O)N2Cc4ccccc4C[C@H]2CN2CCOCC2)OCO3)n2c1CCCC2)N(c1ccccc1)c1ccc(O)cc1`, the cell count by setting is: (compound dose 1 µM) 0.917 ± 0.12; (compound dose 5 µM) 0.441 ± 0.052.

As to `CNC(=O)c1ccccc1Nc1nc(Nc2ccc(N3CCOCC3)cc2OC)ncc1Cl`, the cell count was found to be 0.98 ± 0.043 (compound dose 1 µM) and 0.929 ± 0.15 (compound dose 5 µM).

As to `COc1cc(C2CC(c3ccccc3)=NN2C(N)=S)cc(OC)c1OC` (configuration not stated), the cell count was 0.8135 ± 0.0035 (compound dose 1 µM) and 0.858 ± 0.12 (compound dose 5 µM).

In the case of `CCOC(=O)c1cnc(C#Cc2ccc3c(c2)C(C)(C)CC[S+]3[O-])nc1` (configuration not stated), the cell count (compound dose 1 µM) was 1.2 ± 0.2 and the cell count (compound dose 5 µM) was found to be 0.59 ± 0.0064.

As to `Nc1nc(Cl)nc2c1ncn2[C@H]1C[C@H](O)[C@@H](CO)O1` [Cladribine], the cell count amounted to 1.099 ± 0.0021 (compound dose 1 µM) and 0.775 ± 0.42 (compound dose 5 µM).

As to `O=C(C=Cc1ccccc1)NC(NC(=S)Nc1ccc(Cl)cc1)C(Cl)(Cl)Cl` (configuration not stated), the cell count is 0.822 ± 0.077 (compound dose 1 µM) and 0.795 ± 0.064 (compound dose 5 µM).

These data come from the supplement of paper PMC12462457.
